Reference: the supplement of paper PMC10849652
Some of the results follow.

Sequences of proteins named here, by UniProt entry; tags and fusion partners are left off. A change or cut given only in a name is not applied to a line headed by its entry.
UniProt Q9HC21: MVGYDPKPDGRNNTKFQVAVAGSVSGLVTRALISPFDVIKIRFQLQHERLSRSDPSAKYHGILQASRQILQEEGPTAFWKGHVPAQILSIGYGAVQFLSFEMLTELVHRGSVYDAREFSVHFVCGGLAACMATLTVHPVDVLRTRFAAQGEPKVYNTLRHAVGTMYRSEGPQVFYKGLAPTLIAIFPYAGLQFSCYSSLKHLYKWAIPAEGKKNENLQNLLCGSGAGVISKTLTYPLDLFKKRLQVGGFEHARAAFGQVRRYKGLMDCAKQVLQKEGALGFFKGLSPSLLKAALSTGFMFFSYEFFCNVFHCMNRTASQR
UniProt Q9H2H9: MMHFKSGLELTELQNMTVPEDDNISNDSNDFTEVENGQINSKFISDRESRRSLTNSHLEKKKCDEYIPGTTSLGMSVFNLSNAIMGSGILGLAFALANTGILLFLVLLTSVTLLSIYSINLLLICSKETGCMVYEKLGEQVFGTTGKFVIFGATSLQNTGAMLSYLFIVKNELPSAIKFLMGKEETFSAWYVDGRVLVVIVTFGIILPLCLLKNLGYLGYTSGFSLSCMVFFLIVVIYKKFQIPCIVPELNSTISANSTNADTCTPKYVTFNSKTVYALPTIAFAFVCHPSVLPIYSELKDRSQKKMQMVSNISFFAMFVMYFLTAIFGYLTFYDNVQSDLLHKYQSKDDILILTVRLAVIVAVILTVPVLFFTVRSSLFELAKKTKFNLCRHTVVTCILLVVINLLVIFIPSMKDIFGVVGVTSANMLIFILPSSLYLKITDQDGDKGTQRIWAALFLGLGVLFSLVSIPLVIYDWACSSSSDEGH
UniProt O43772: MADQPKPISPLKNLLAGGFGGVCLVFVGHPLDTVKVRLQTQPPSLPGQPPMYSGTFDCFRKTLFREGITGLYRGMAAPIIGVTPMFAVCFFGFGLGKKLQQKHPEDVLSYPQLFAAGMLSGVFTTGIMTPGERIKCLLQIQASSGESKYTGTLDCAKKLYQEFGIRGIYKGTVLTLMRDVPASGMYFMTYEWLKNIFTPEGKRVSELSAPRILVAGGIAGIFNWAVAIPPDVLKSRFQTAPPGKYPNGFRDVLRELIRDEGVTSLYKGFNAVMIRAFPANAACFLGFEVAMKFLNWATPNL
UniProt Q96CW6: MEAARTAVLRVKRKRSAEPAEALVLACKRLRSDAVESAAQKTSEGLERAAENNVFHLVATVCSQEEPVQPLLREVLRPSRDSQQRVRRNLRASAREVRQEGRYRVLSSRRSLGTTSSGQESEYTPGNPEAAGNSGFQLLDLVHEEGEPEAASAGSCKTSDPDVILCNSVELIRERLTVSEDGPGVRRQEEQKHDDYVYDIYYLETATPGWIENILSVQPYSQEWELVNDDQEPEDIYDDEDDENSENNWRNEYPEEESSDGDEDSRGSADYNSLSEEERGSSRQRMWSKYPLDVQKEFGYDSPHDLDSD
UniProt Q9HBR0: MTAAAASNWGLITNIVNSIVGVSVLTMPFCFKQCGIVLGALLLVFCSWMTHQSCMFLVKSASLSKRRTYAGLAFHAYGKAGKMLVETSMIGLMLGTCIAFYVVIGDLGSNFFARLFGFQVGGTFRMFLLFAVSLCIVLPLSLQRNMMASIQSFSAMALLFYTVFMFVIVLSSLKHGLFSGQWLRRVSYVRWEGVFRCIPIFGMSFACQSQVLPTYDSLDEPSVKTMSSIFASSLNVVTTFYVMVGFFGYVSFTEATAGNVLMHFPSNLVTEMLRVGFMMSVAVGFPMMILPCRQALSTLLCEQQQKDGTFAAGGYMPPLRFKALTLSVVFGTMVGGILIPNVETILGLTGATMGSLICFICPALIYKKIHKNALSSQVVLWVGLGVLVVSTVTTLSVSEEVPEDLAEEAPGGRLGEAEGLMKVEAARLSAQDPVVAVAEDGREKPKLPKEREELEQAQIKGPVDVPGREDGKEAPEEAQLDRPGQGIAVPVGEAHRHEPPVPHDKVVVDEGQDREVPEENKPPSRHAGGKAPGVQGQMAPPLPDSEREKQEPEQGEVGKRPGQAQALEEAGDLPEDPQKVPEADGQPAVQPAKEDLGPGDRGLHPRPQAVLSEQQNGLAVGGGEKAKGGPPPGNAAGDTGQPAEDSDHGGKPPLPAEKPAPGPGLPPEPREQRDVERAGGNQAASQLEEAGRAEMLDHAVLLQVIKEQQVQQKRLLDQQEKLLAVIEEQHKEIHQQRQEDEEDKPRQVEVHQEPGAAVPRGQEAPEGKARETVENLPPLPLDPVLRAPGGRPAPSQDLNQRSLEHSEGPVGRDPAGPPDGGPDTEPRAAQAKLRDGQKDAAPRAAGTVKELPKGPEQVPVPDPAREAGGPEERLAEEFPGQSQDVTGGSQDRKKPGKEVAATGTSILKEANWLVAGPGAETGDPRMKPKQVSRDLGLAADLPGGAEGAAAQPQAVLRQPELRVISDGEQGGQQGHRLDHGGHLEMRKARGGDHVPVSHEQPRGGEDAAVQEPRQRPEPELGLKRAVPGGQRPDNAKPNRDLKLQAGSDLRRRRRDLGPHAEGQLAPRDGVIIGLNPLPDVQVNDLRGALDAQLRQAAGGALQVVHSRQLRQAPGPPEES
UniProt Q8N1S5: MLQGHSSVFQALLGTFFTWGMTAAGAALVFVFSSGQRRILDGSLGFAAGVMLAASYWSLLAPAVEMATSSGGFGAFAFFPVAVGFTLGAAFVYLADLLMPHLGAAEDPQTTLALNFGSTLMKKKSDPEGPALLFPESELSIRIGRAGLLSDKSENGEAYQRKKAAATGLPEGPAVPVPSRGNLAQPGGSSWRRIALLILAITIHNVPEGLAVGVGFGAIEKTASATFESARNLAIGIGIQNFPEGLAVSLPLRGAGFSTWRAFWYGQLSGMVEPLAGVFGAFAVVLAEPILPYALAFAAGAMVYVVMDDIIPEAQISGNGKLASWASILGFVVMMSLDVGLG
UniProt Q92536: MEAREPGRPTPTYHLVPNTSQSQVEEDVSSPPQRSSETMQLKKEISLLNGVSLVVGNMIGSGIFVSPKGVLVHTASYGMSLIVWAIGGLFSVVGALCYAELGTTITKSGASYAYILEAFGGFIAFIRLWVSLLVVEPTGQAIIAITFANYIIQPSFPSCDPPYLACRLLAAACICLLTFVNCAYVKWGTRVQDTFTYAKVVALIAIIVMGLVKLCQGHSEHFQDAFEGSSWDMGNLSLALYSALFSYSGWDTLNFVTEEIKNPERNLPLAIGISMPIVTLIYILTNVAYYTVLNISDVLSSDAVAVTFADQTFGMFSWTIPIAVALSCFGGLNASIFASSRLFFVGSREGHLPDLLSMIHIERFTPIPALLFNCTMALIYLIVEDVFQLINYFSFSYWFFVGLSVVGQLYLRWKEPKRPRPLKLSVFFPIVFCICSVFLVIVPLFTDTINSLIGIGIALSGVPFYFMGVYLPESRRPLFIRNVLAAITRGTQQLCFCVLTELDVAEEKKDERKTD
UniProt Q01650: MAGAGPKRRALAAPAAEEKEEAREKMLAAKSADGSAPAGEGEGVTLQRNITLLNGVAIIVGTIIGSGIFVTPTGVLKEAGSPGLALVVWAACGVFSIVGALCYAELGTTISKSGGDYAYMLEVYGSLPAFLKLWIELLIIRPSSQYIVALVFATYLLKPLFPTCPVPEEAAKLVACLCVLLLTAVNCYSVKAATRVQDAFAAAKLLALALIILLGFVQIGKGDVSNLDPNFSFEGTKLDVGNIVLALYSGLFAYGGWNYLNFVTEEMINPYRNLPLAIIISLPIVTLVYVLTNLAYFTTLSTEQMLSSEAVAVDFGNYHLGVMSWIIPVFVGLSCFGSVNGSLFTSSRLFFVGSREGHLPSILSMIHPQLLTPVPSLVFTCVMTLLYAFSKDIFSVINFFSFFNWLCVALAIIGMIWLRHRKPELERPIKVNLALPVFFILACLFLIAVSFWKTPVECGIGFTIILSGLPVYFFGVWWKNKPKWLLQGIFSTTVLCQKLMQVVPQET
UniProt Q8WUX1, whole entry, looked up: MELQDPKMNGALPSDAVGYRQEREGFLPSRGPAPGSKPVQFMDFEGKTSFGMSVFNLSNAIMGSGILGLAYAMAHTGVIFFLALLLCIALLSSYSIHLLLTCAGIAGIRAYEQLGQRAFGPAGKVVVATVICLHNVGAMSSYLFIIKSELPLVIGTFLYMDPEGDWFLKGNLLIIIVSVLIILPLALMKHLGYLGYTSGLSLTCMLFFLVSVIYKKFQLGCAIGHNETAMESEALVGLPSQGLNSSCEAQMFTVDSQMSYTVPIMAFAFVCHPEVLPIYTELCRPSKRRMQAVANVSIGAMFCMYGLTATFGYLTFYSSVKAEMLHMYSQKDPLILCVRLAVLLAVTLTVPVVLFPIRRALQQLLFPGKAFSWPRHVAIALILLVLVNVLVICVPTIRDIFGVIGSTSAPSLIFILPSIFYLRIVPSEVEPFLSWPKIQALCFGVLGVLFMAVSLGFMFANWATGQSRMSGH

How the values were obtained:
Experiment in all cases: log2 fold change, soluble protein after heating vs DMSO (PISA); higher = thermal stabilisation; K562 lysate, 10 uM; active = over 0.2 and 3.5 SD of the protein, either way, in both replicates (recomputed)
[1] = compound: NCC(=O)Nc1ccc(-n2nc(C(F)(F)F)cc2-c2ccc3c(ccc4ccccc43)c2)cc1
In short: (§1)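 Values give the log-two fold change in thermal stability against solvent controls, from duplicates. Crude K562 extract at 1 mg/mL protein, made by dounce homogenisation in PBS pH 7.4 with 1 mM MgCl2, was treated with 10 μM compound for 30 min. After 3 min heating across 48°C-58°C, aliquots were pooled, adjusted to 0.5% NP-40 at 4°C and centrifuged at 21,000xg for 90 min. The supernatant was measured by TMTpro 16plex LC-MS/MS with channel sums equalised.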

vorinostat = compound: O=C(CCCCCCC(=O)Nc1ccccc1)NO [vorinostat]
In short: as §1

silmitasertib = compound: O=C(O)c1ccc2c(c1)nc(Nc1cccc(Cl)c1)c1ccncc12 [silmitasertib]
In short: as §1

[2] = compound: O=C1NC(=O)C(c2cnc3ccccn23)=C1c1cn2c3c(cc(F)cc13)CN(C(=O)N1CCCCC1)CC2
In short: as §1

entospletinib = compound: c1cn2cc(-c3ccc4cn[nH]c4c3)nc(Nc3ccc(N4CCOCC4)cc3)c2n1 [entospletinib]
In short: as §1

Measured: log2 fold change

SLC25A19 (UniProt Q9HC21)
inactive: [1] -0.02 | vorinostat 0.085 | silmitasertib -0.003 | [2] -0.036 | entospletinib 0.043

SLC38A1 (UniProt Q9H2H9)
inactive: [1] -0.015 | vorinostat 0.099 | silmitasertib 0 | [2] 0.008 | entospletinib -0.015

SLC25A20 (UniProt O43772)
inactive: [1] -0.041 | vorinostat 0.046 | silmitasertib -0.012 | [2] 0.012 | entospletinib 0

Two consecutive entries out of the list so far:
SLC38A1 (UniProt Q9H2H9)
inactive: [1] -0.015 | vorinostat 0.099 | silmitasertib 0 | [2] 0.008 | entospletinib -0.015

SLC25A20 (UniProt O43772)
inactive: [1] -0.041 | vorinostat 0.046 | silmitasertib -0.012 | [2] 0.012 | entospletinib 0

Later entries.

SLC7A6OS (UniProt Q96CW6)
inactive: [1] -0.002 | vorinostat 0.046 | silmitasertib 0.013 | [2] 0 | entospletinib -0.022

SLC38A10 (UniProt Q9HBR0)
inactive: [1] -0.034 | vorinostat 0.044 | silmitasertib -0.013 | [2] 0.08 | entospletinib 0.024

SLC39A11 (UniProt Q8N1S5)
inactive: [1] -0.076 | vorinostat 0.103 | silmitasertib -0.015 | [2] 0.058 | entospletinib -0.137

SLC7A6 (UniProt Q92536)
inactive: [1] 0.006 | vorinostat -0.053 | silmitasertib -0.074 | [2] -0.004 | entospletinib 0.036

SLC7A5 (UniProt Q01650)
inactive: [1] 0.034 | vorinostat 0.109 | silmitasertib -0.04 | [2] 0.013 | entospletinib 0.03

SLC38A5 (UniProt Q8WUX1)
inactive: [1] 0.02 | vorinostat 0.106 | silmitasertib 0 | [2] -0.018 | entospletinib 0.008
